Assay results as given in article PMC11515921, “Unraveling the molecular determinants of a rare human mitochondrial disorder caused by the P144L mutation of FDX2” (Protein Science : A Publication of the Protein Society, 2024).
These are yes or no findings as the source states them, for the method shown. A result given as binding can be weak or reduced; the word gives no strength.

Tests used:
[1] = molecular target: P144L [2Fe-2S] FDX2 (ferredoxin-2), residues 69-186 (human); assay: NMR titration; mixtures of 15N-labeled [2Fe-2S]^2+ FDX2 (WT or P144L) and FDXRox at 1:0.5 and 1:1 ratio with 1 mM NADPH (excess); 1H-15N HSQC; both purified
[2] = molecular target: WT [2Fe-2S] FDX2 (ferredoxin-2), residues 69-186 (human); assay: as above
[3] = molecular target: P144L [2Fe-2S] FDX2 (ferredoxin-2), residues 69-186 (human); assay: NMR titration; 15N-labeled 150 μM [2Fe-2S]^2+ FDX2 (WT or P144L), unlabeled FDXRox added from 0.3 to 1.2 mol eq.; 1H-15N HSQC at 298 K, 900 MHz; 30 mM HEPES, 150 mM NaCl pH 7.5; both purified
[4] = molecular target: WT [2Fe-2S] FDX2 (ferredoxin-2), residues 69-186 (human); assay: as above

Measured: binding

B1: ferredoxin reductase FDXR, residues 33-491 (enzyme, UniProt P22570 33-491)
chain: STQEKTPQICVVGSGPAGFYTAQHLLKHPQAHVDIYEKQPVPFGLVRFGVAPDHPEVKNVINTFTQTAHSGRCAFWGNVEVGRDVTVPELREAYHAVVLSYGAEDHRALEIPGEELPGVCSARAFVGWYNGLPENQELEPDLSCDTAVILGQGNVALDVARILLTPPEHLERTDITKAALGVLRQSRVKTVWLVGRRGPLQVAFTIKELREMIQLPGARPILDPVDFLGLQDKIKEVPRPRKRLTELLLRTATEKPGPAEAARQASASRAWGLRFFRSPQQVLPSPDGRRAAGVRLAVTRLEGVDEATRAVPTGDMEDLPCGLVLSSIGYKSRPVDPSVPFDSKLGVIPNVEGRVMDVPGLYCSGWVKRGPTGVIATTMTDSFLTGQMLLQDLKAGLLPSGPRPGYAAIQALLSSRGVRPVSFSDWEKLDAEEVARGQGTGKPREKLVDPQEMLRLLGH
binds: all assays above
